# Measured values published in patent publication US5502061A (Eli Lilly and Company, priority 1994, dated 1996).
# Assays:
# [1] = general procedure: Boc solid-phase peptide synthesis; PAM-resin; DCC (biotin coupling); standard double-couple protocol
# [2] = Boc solid-phase peptide synthesis; PAM-resin; DCC (biotin coupling); standard double-couple protocol; conditions: whole synthesis, scale 1.5 mmol
# [3] = whole synthesis, scale 1.5 mmol
Substance,conjugation yield ([1]; conjugation step) [%],crude mass [2] [g],"isolated mass [1, 3] [g]","isolated yield [1, 3] [%]"
Fluorescein-labeled Nα-Biotin-Gly-Ser-Gln-Asn-Tyr-Pro-Ile-Val-Gly-Lys-OH,12,,,
N^α -Biotin-Gly-Ser-Gln-Asn-Tyr-Pro-Ile-Val-Gly-Lys-OH,,2.14,1.206,62
